According to paper doi:10.1101/2023.08.25.554800:
Results are given in words; binding and its absence hold for the method and conditions named. Binding seen in cells or lysates may run through a third protein.

T1: Bit61-TAP (S. cerevisiae) (UniProt P47041)
T1 sequence: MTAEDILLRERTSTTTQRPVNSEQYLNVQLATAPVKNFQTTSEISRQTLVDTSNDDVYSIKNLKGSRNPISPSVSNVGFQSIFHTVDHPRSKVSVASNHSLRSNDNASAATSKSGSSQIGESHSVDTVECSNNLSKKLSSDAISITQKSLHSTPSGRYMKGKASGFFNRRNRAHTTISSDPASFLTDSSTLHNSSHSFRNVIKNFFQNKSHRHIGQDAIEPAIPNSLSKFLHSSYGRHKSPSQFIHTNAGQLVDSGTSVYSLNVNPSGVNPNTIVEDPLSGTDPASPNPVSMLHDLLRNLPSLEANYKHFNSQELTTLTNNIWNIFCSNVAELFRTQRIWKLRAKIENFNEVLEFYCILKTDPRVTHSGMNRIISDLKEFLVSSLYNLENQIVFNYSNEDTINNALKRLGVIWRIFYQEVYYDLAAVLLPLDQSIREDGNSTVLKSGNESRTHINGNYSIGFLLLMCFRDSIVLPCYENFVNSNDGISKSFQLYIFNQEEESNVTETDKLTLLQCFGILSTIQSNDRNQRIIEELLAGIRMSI


Molecular target: T1, Bit61-TAP (S. cerevisiae)
Assay: pull-down

Row | binding | Binder
1 | no binding | Pil1 (native eisosome filaments) (protein, UniProt P53252 1-339) MHRTYSLRNSRAPTASQLQNPPPPPSTTKGRFFGKGGLAYSFRRSAAGAFGPELSRKLSQLVKIEKNVLRSMELTANERRDAAKQLSIWGLENDDDVSDITDKLGVLIYEVSELDDQFIDRYDQYRLTLKSIRDIEGSVQPSRDRKDKITDKIAYLKYKDPQSPKIEVLEQELVRAEAESLVAEAQLSNITRSKLRAAFNYQFDSIIEHSEKIALIAGYGKALLELLDDSPVTPGETRPAYDGYEASKQIIIDAESALNEWTLDSAQVKPTLSFKQDYEDFEPEEGEEEEEEDGQGRWSEDEQEDGQIEEPEQEEEGAVEEHEQVGHQQSESLPQQTTA
2 | no binding | Lsp1 (native eisosome filaments) (protein, UniProt Q12230 1-341) MHRTYSLRNQRAPTAAELQAPPPPPSSTKSKFFGKASIASSFRKNAAGNFGPELARKLSQLVKTEKGVLRAMEVVASERREAAKQLSLWGADNDDDVSDVTDKLGVLIYELGELQDQFIDKYDQYRVTLKSIRNIEASVQPSRDRKEKITDEIAHLKYKDPQSTKIPVLEQELVRAEAESLVAEAQLSNITREKLKAAYSYMFDSLRELSEKFALIAGYGKALLELLDDSPVTPGEARPAYDGYEASRQIIMDAESALESWTLDMAAVKPTLSFHQTVDDVYEDEDGEEEEEPEIQNGDIPGQVVEEEEVEWTTEVPVDDEAHEADHHVSQNGHTSGSENI
